## Library screen at single concentrations

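Whole-parasite assay of Trypanosoma brucei over 72 hours; the read-out is not stated. Tested at 30 µM. Direction is inferred from retests: higher values go with stronger inhibition. Values scatter widely below zero; nearly all retest evidence comes from the higher of the two concentrations used. Of about 64,000 compounds tested this way, about 940 (1.5%) reached 50% or more in at least one test.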

Each number is a percent effect as filed.
The record does not define 0% and 100%; most values in the screen are far below 50% and negative numbers occur (in some assays of this library far below -100).
This is an unselected part of the compounds tested.

structure: Cc1nc(C(=O)NC2CCN(CCOc3ccc(Br)cc3)CC2)cs1
percent effect: 34.31%

structure: CCc1ncc2c(n1)CN(CC(=O)NC1CCCCNC1=O)CC2 (configuration not stated)
percent effect: -69.42%

structure: c1cncc(-c2ccnn2CN2CCOCC2)c1
percent effect: -24.43%

structure: N#Cc1cccc(S(=O)(=O)NC2CCN(CC(F)(F)F)C2)c1 (configuration not stated)
percent effect: -46.18%

structure: O=C(NCC1CC1)Nc1ccc(OCC(F)(F)F)nc1
percent effect: 5.646%

structure: Cc1ccc(-n2ncc(C(=O)NC3CCCCC3)c2N)cc1
percent effect: -8.442%

structure: CC(C)(C)C(=O)N1C[C@@H](F)[C@@H](OCc2nc3ccccc3o2)C1
percent effect: 1.567%

structure: CC(C)c1cc(C(F)(F)F)n2nc(C3CCN(S(C)(=O)=O)C3)cc2n1 (configuration not stated)
percent effect: -9.044%

structure: Cc1ccc(-c2n[nH]cc2CNCC2CCN(CC(C)O)CC2)cc1 (configuration not stated)
percent effect: 15.73%

structure: COC(=O)CCNC(=O)C1CC(=O)N(C2CCCC2)C1 (configuration not stated)
percent effect: 12.23%

structure: [H][C@@]12CCN(Cc3c(C)noc3C)C[C@@]1([H])O[C@@H](c1ccncn1)C2
percent effect: 42.54%

structure: [H][C@@]12CCN(c3ncccn3)C[C@]1(C(=O)NCc1ccccn1)CCO2
percent effect: -52.75%

structure: O=C(NC1CCS(=O)(=O)C1)c1ccccc1SCc1cscn1 (configuration not stated)
percent effect: -11.03%

structure: Cc1ccc(NC(=O)CNc2ccn(CC(N)=O)n2)c(Cl)c1
percent effect: -2.806%

structure: COc1ccc(N2CCC(NS(=O)(=O)N(C)C(C)C)CC2)cc1
percent effect: -10.78%

structure: Cc1cc2nc(O)c(O)nc2cc1S(=O)(=O)NC1CC1
percent effect: -10.22%

structure: CC(C)CC(O)C1CCN(C(=O)c2coc(CN3CCOCC3)c2)CC1 (configuration not stated)
percent effect: -9.936%

structure: COc1ccc(CN(Cc2nc(C)no2)C2CCCCC2)cc1OC
percent effect: 0.07182%

structure: c1ncc(CN2CC(Cc3nccc4cc[nH]c34)C2)cn1
percent effect: -5.859%

structure: COc1c(C)cnc(CSc2nnc(C)s2)c1C
percent effect: 10.41%

structure: Fc1ccc(CN2CCC(c3nccnc3-n3ccnc3)CC2)cc1
percent effect: 14.8%

structure: Cc1noc(CCCC(=O)N2CCNC(=O)C2)n1
percent effect: -71.44%

structure: CC(=O)N1N=C(c2ccccc2)OC1C(=O)NCCC1=CCCCC1 (configuration not stated)
percent effect: -34.39%

structure: Cc1cccc(N2CCC(N3CCC4(CN(C)C(=O)O4)C3)CC2)c1C (configuration not stated)
percent effect: 12.95%

structure: O=C(O)C(F)(F)F.O=C(O)C(F)(F)F.O=C(O)c1c(-c2cccnc2)ncc2c1CCN(Cc1cccnc1)C2
percent effect: -25.29%

structure: COCc1cccc(S(=O)(=O)Nc2ncc(C)s2)c1
percent effect: 7.114%

structure: CC(C)OCCN1CCC(C(=O)c2cc(F)ccc2F)CC1
percent effect: -15.17%

structure: O=C(c1ccc[nH]1)N1Cc2nccn2CC(Cn2ncccc2=O)C1 (configuration not stated)
percent effect: -5.29%

structure: CC1(C)CN(CC(F)(F)F)CCN1CC(N)=O
percent effect: -3.572%

structure: Cc1ccc(-c2cccc(-c3ccn(CCN4CCCC4)n3)c2)nn1
percent effect: -11.17%

structure: O=C(c1ccccc1)N1Cc2nccn2CC(Cn2ncccc2=O)C1 (configuration not stated)
percent effect: -4.721%

structure: CC(O)(CCc1ccccc1)CNC(=O)c1ccc(F)cc1 (configuration not stated)
percent effect: -23.65%

structure: CCOCc1ncn2c1CN(S(=O)(=O)c1cccs1)CCC2
percent effect: -9.511%

structure: Cc1nc(C)c(C(=O)NCC(c2ccccc2Cl)N2CCOCC2)s1 (configuration not stated)
percent effect: -42.32%

structure: Cn1cc(C[C@H]2[C@H](N3CCOCC3)CCN2c2ncc(F)cn2)cn1.O=C(O)C(F)(F)F
percent effect: -75.31%

structure: [H][C@]12CCCCN1CCC[C@H]2CN(C)Cc1nc2ccccc2c(=O)[nH]1
percent effect: -33.98%

structure: Cc1nn(C)c(Cl)c1C1CCCN1C(=O)c1ccc(C(N)=O)cn1 (configuration not stated)
percent effect: -12%

structure: CC(C)(CNC(=O)C1CCCN(C(N)=O)C1)c1cccc(Cl)c1 (configuration not stated)
percent effect: -38.75%

structure: [H][C@@]12CN(Cc3cccnc3N)C[C@]1([H])N(Cc1ccccn1)C(=O)O2
percent effect: -27.04%

structure: O=C(O)C(F)(F)F.[H][C@@]12COC[C@]1(CNC(=O)c1ccco1)CN(Cc1scnc1C)C2
percent effect: -27.02%

structure: CCOc1cccc(CNC(=O)NC2CC=CC2)c1OC(F)F
percent effect: 10.34%

structure: CCC(=O)N1CC[C@@H](c2ccc3ccccc3c2)[C@H](O)C1
percent effect: 24.29%

structure: [H][C@]12CC[C@](C(=O)N3CCC(n4cc(CCO)nn4)CC3)(C1)C(=C)C2(C)C
percent effect: -17.29%

structure: CC(CCc1cccc(F)c1)NC(=O)NCc1ncnn1C (configuration not stated)
percent effect: -9.782%

structure: Cc1ccnc(NC(=O)c2[nH]nc(C(C)C)c2Br)c1
percent effect: 57.19%

structure: COc1ccc(C2=CCN(C(=O)CN(C)CC(N)=O)CC2)cc1
percent effect: -26.55%

structure: CN(C)Cc1cnn(-c2ccccc2C(=O)NCCC2CCCN2C)c1 (configuration not stated)
percent effect: -13.85%

structure: CCC(=O)Nc1ccc(C(C)NC(=O)COCCOC)cc1 (configuration not stated)
percent effect: 8.778%

structure: COCc1nc(C(=O)NS(=O)(=O)c2ccc(C)c(C)c2)cs1
percent effect: -61.39%

structure: CCS(=O)(=O)CC(=O)NC(C)c1ccc(F)cc1F (configuration not stated)
percent effect: -61.88%

structure: Clc1ccc(C2NCCc3cc4c(cc32)OCCO4)cc1 (configuration not stated)
percent effect: -20.9%

structure: O=C(Cn1nc(-c2ccc(F)cc2)oc1=O)NCCc1ccccc1
percent effect: 15.18%

structure: CCn1ncc2c1CCCC2NCc1ccc2c(c1)OCCO2 (configuration not stated)
percent effect: -5.596%

structure: CCN1CCOCC2(C1)CN(C(=O)c1c(C)noc1C)CCO2 (configuration not stated)
percent effect: -86.37%

4 of the entries, repeated:

structure	percent effect
COCc1nc(C(=O)NS(=O)(=O)c2ccc(C)c(C)c2)cs1	-61.39%
Cc1ccc(-c2cccc(-c3ccn(CCN4CCCC4)n3)c2)nn1	-11.17%
CC(C)(C)C(=O)N1C[C@@H](F)[C@@H](OCc2nc3ccccc3o2)C1	1.567%
COc1c(C)cnc(CSc2nnc(C)s2)c1C	10.41%

Source: ChEMBL document CHEMBL3988442, “University of Dundee, Small-Polar-MMV Screening Library” (2021).